The other results are listed elsewhere or left out. The main result of the screen is listed elsewhere. These columns were measured beside it and carry no call. The list favours compounds with an active or inconclusive main result. Potencies come from curve fits of mixed quality, noted in brackets.
Test: qHTS Assay for Lipid Storage Modulators in Drosophila S3 Cells;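 as to cell number change: cells counted by Cell Tracker Red CMTPX staining in the red channel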
Conditions: BODIPY lipid droplet fluorescence, 18-24 h; for cell number change: measured here: cell count max response, cells fed with added oleic acid
Outline: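 Drosophila S3 cells got compounds at several concentrations plus oleic acid (400 uM solution). Laser-scanning cytometry with 488 nm excitation read lipid droplets at 500-530 nm and cells at 575-640 nm. Percent activity was relative to 20 uM Triacsin C.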

[1] = measured here: cell number channel AC50, cells fed with added oleic acid
[2] = measured here: lipid fluorescence (Fed channel) AC50, cells fed with added oleic acid

SMILES	cell number change [%]	AC50 [1]	AC50 [2]
COc1ccc(C)cc1NC(=S)N1CCN(S(C)(=O)=O)CC1	-7.54	0.731 µM [rising, single point]	
CC(C)(C)c1ccc(Cn2cnc(-c3ccc([N+](=O)[O-])cc3)c2)cc1	-22.6		18.4 µM [falling, partial curve, poor fit]
COc1nccnc1NS(=O)(=O)c1ccc(NC(=S)NC(=O)c2ccc(F)c(F)c2)cc1	14.4		0.146 µM [rising, full curve, poor fit]
O=C(O)CSc1c2c(nc3cc(C(=O)Nc4cccc(C(F)(F)F)c4)ccc13)CCCC2		1.64 µM [falling, partial curve]	
CCC(C)N1CCN(S(=O)(=O)Cc2ccccc2)CC1 (centres undefined)	-7.39		
CC(=O)c1c(C)[nH]c(C(=O)N2CCc3ccccc3C2)c1C	14.5		0.00461 µM [rising, full curve, poor fit]
CCC(=O)Nc1ccc2oc(-c3ccccc3Br)nc2c1	-11.2		0.291 µM [rising, full curve, poor fit]
Cn1c(CSCc2ccc(Cl)c(Cl)c2)n[nH]c1=S	15		3.66 µM [rising, partial curve, poor fit]
C/C(=N/NS(=O)(=O)c1ccc(Cl)cc1)c1cccc(NC(=O)c2ccncc2)c1	-38.6	35.5 µM [falling, single point]	
O=C(NCC1CCCO1)Nc1ccc(Cl)cc1 (centres undefined)	-11.3		4.11 µM [falling, single point]
CCC(CC)C(=O)Nc1cccc(C(=O)Nc2nnc(C)s2)c1	93	20.6 µM [rising, single point]	
Cn1c(N2CCCC2)nc2c1c(=O)n(Cc1ccc(F)cc1)c(=O)n2C	1.07		
CCCn1nnnc1NCc1ccccc1F			0.092 µM [falling, full curve, poor fit]
O=C(CN1CC[C@@]2(O)CCCC[C@H]2[C@@H]1c1ccc(F)cc1)NCc1ccco1	-5.61		
O=C(CCCc1c[nH]c2ccccc12)NCc1cccs1	-14.7	0.164 µM [falling, partial curve, poor fit]	2.31 µM [falling, full curve, poor fit]
CSc1ncccc1C(=O)OCC(=O)NC1CCCC1	-4.04		
CCSc1ccc(-c2ccc(C)cc2)nn1	-18.2		
CCCCOc1ccc(OCCCN2CCOCC2)cc1	57.7	18.4 µM [rising, single point]	
O=C1Nc2cc(C(=O)N3CCN(c4ccccn4)CC3)ccc2S/C1=C\c1ccccc1	-43.6	4.11 µM [falling, partial curve]	
CN(CC(=O)NCCc1ccc(S(N)(=O)=O)cc1)CC(=O)Nc1ccccc1Cl	-5.57		

SMILES	cell number change [%]	AC50 [1]	AC50 [2]
O=C(Nc1nc2ccc(S(=O)(=O)N3CCCC3)cc2s1)c1cccs1	-41.5	14.6 µM [falling, single point]	32.6 µM [falling, single point]
Cc1ccc(-c2nnc(CSc3nc4cc5c(cc4cc3C)OCO5)o2)cc1	3.5		23.1 µM [rising, single point]
O=C(OCC(=O)N1CCN(C(=O)c2ccco2)CC1)C1=COCCO1	-12.6	0.0731 µM [rising, full curve, poor fit]	6.51 µM [rising, single point]
O=C(NCc1cccc(C(F)(F)F)c1)c1cc(Cl)ccc1Cl	30.9	11.6 µM [rising, single point]	13 µM [rising, partial curve, poor fit]
CC12CN3CC(C)(CN(C1)C3c1cc3ccccc3[nH]1)C2=O (centres undefined)	-13.6		7.31 µM [falling, partial curve, poor fit]
COc1cc(NC(=O)c2ccco2)c(C(=O)OCC(=O)c2c[nH]c3ccccc23)cc1OC	-56.5	29.1 µM [falling, single point]	0.164 µM [rising, full curve, poor fit]
O=C1OC2(CCCCC2)OC(=O)C1=CNc1nc2ccccc2s1	12.5		
CCOc1cccc(-c2nnc3sc(-c4cc(OC)c(OC)cc4OC)nn23)c1	1.82		
Cc1ccc(Cl)cc1NC(=O)C(NS(=O)(=O)c1cccs1)c1ccccc1 (centres undefined)	32.8	3.26 µM [rising, partial curve]	25.9 µM [rising, partial curve, poor fit]
CC1(C)CC(NS(=O)(=O)c2ccc(C(C)(C)C)cc2)CC(C)(C)N1			29.1 µM [rising, single point]
CCC(=O)c1cc2c(C)cc(=O)oc2c(C)c1OC(C)=O	1.72		2.06 µM [rising, partial curve]
Cc1cccc2c(SCC(=O)NCC3CCCO3)nc(-c3ccc(F)cc3)nc12 (centres undefined)	-10		
Cc1cc(S(=O)(=O)NC2CCCC2)ccc1-n1cnnn1	11.3		29.1 µM [rising, single point]
CCN(C(=O)Cn1c(=O)n2nc(CCn3nc(C)cc3C)nc2c2ccccc21)c1cccc(C)c1	1.47		
CC(C)(C)Nc1nc(NC(C)(C)C)nc(-n2ccnc2)n1	143	8.2 µM [rising, partial curve]	4.11 µM [rising, partial curve]
N#CC1=C(N)Oc2c(ccc3ccccc23)C1c1cccs1 (centres undefined)			1.46 µM [rising, partial curve]
CCOC(=O)c1cc(CC)sc1NC(=O)Cc1ccccc1	40.4	18.4 µM [rising, single point]	20.6 µM [rising, single point]
COc1ccc(NC(=O)CN(C)CC(=O)N2CCCCCC2)cc1		3.26 µM [rising, partial curve]	
CN1CCN(c2ncc(CN3C(=O)c4ccccc4C3=O)s2)CC1	32.6	25.9 µM [rising, single point]	
O=C(Nc1ccc(F)c(Cl)c1)Nc1csc2ccccc12	-59.7	20.6 µM [falling, single point]	29.1 µM [falling, single point]

Sorted by molar mass (rising): part of the list above.
SMILES	cell number change [%]	AC50 [1]	AC50 [2]
CCC(=O)c1cc2c(C)cc(=O)oc2c(C)c1OC(C)=O	1.72		2.06 µM [rising, partial curve]
O=C(Nc1ccc(F)c(Cl)c1)Nc1csc2ccccc12	-59.7	20.6 µM [falling, single point]	29.1 µM [falling, single point]
CC1(C)CC(NS(=O)(=O)c2ccc(C(C)(C)C)cc2)CC(C)(C)N1			29.1 µM [rising, single point]
